Assay results published in paper PMC6339880.

Protein sequences, listed by entry. Tags and fused reporters are not part of them. Lines headed by an entry give the natural chain unless they say otherwise; changes in a name come on top.
UniProt P0AAI3: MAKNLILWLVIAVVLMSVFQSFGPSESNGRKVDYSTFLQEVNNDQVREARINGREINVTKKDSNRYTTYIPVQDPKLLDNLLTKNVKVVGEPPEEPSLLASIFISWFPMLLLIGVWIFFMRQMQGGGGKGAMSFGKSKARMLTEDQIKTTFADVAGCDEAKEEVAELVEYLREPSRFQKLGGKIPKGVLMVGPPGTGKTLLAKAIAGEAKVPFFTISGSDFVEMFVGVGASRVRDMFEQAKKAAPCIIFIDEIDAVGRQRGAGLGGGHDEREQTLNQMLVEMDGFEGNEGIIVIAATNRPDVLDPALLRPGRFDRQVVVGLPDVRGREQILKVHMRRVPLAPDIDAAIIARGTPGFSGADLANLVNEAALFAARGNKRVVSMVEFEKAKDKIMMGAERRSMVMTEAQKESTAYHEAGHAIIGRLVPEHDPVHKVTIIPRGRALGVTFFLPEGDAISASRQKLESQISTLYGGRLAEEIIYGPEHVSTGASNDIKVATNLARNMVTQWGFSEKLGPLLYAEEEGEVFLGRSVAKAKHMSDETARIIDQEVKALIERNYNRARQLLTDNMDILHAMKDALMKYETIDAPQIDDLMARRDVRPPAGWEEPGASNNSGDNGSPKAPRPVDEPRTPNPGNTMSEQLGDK

T1: Strep-LpxC (E. coli) (UniProt P0A725)
T1 sequence: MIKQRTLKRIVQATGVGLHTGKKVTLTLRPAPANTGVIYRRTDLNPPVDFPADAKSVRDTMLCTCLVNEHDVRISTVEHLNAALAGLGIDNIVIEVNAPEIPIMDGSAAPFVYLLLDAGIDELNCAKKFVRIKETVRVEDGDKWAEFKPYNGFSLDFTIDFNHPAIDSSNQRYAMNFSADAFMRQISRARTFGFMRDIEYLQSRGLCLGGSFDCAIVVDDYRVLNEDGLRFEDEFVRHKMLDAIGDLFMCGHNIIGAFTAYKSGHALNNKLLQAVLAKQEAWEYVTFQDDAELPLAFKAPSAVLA


What was measured:
His6-MBP-FtsH (E. coli) = His6-MBP-FtsH (E. coli) (UniProt P0AAI3); test: affinity purification with mass spectrometry; His6-MBP-FtsH overproduced in E. coli BL21 Δarg/Δlys grown at 30°C (slow), 37°C (medium) or 40°C (fast growth); Ni-NTA affinity purification from the lysate; co-purified proteins identified by LC-MS/MS with a super-SILAC standard; enriched >2-fold over the His6-MBP empty-vector control, p<0.05, or 'FtsH only'
Strep-LpxC (E. coli) = biological target: T1, Strep-LpxC (E. coli); test: affinity purification with mass spectrometry; Strep-LpxC overproduced in E. coli BL21 Δarg/Δlys grown at 30°C (slow), 37°C (medium) or 40°C (fast growth); Strep-tactin affinity purification from the lysate; co-purified proteins identified by LC-MS/MS with a super-SILAC standard; enriched >2-fold over the Strep-tag empty-vector control, p<0.05, or 'LpxC only'

| Binder | binding (His6-MBP-FtsH (E. coli)) | binding (Strep-LpxC (E. coli)) |
| --- | --- | --- |
| FabD (enzyme, UniProt P0AAI9 1-309) MTQFAFVFPGQGSQTVGMLADMAASYPIVEETFAEASAALGYDLWALTQQGPAEELNKTWQTQPALLTASVALYRVWQQQGGKAPAMMAGHSLGEYSALVCAGVIDFADAVRLVEMRGKFMQEAVPEGTGAMAAIIGLDDASIAKACEEAAEGQVVSPVNFNSPGQVVIAGHKEAVERAGAACKAAGAKRALPLPVSVPSHCALMKPAADKLAVELAKITFNAPTVPVVNNVDVKCETNGDAIRDALVRQLYNPVQWTKSVEYMAAQGVEHLYEVGPGKVLTGLTKRIVDTLTASALNEPSAMAAALEL | binds | – |
| EptC (enzyme, UniProt P0CB39 1-577) MHSTEVQAKPLFSWKALGWALLYFWFFSTLLQAIIYISGYSGTNGIRDSLLFSSLWLIPVFLFPKRIKIIAAVIGVVLWAASLAALCYYVIYGQEFSQSVLFVMFETNTNEASEYLSQYFSLKIVLIALAYTAVAVLLWTRLRPVYIPKPWRYVVSFALLYGLILHPIAMNTFIKNKPFEKTLDNLASRMEPAAPWQFLTGYYQYRQQLNSLTKLLNENNALPPLANFKDESGNEPRTLVLVIGESTQRGRMSLYGYPRETTPELDALHKTDPNLTVFNNVVTSRPYTIEILQQALTFANEKNPDLYLTQPSLMNMMKQAGYKTFWITNQQTMTARNTMLTVFSRQTDKQYYMNQQRTQSAREYDTNVLKPFQEVLNDPAPKKLIIVHLLGTHIKYKYRYPENQGKFDGNTDHVPPGLNAEELESYNDYDNANLYNDHVVASLIKDFKAANPNGFLVYFSDHGEEVYDTPPHKTQGRNEDNPTRHMYTIPFLLWTSEKWQATHPRDFSQDVDRKYSLAELIHTWSDLAGLSYDGYDPTRSVVNPQFKETTRWIGNPYKKNALIDYDTLPYGDQVGNQ | binds | binds |
| DksA (protein, UniProt P0ABS1 1-151) MQEGQNRKTSSLSILAIAGVEPYQEKPGEEYMNEAQLAHFRRILEAWRNQLRDEVDRTVTHMQDEAANFPDPVDRAAQEEEFSLELRNRDRERKLIKKIEKTLKKVEDEDFGYCESCGVEIGIRRLEARPTADLCIDCKTLAEIREKQMAG | binds | binds |
| EptA (enzyme, UniProt P30845 1-547) MLKRLLKRPSLNLLAWLLLAAFYISICLNIAFFKQVLQALPLDSLHNVLVFLSMPVVAFSVINIVLTLSSFLWLNRPLACLFILVGAAAQYFIMTYGIVIDRSMIANIIDTTPAESYALMTPQMLLTLGFSGVLAALIACWIKIKPATSRLRSVLFRGANILVSVLLILLVAALFYKDYASLFRNNKELVKSLSPSNSIVASWSWYSHQRLANLPLVRIGEDAHRNPLMQNEKRKNLTILIVGETSRAENFSLNGYPRETNPRLAKDNVVYFPNTASCGTATAVSVPCMFSDMPREHYKEELAQHQEGVLDIIQRAGINVLWNDNDGGCKGACDRVPHQNVTALNLPDQCINGECYDEVLFHGLEEYINNLQGDGVIVLHTIGSHGPTYYNRYPPQFRKFTPTCDTNEIQTCTKEQLVNTYDNTLVYVDYIVDKAINLLKEHQDKFTTSLVYLSDHGESLGENGIYLHGLPYAIAPDSQKQVPMLLWLSEDYQKRYQVDQNCLQKQAQTQHYSQDNLFSTLLGLTGVETKYYQAADDILQTCRRVSE | binds | binds |
| HldE (enzyme, UniProt P76658 1-477) MKVTLPEFERAGVMVVGDVMLDRYWYGPTSRISPEAPVPVVKVNTIEERPGGAANVAMNIASLGANARLVGLTGIDDAARALSKSLADVNVKCDFVSVPTHPTITKLRVLSRNQQLIRLDFEEGFEGVDPQPLHERINQALSSIGALVLSDYAKGALASVQQMIQLARKAGVPVLIDPKGTDFERYRGATLLTPNLSEFEAVVGKCKTEEEIVERGMKLIADYELSALLVTRSEQGMSLLQPGKAPLHMPTQAQEVYDVTGAGDTVIGVLAATLAAGNSLEEACFFANAAAGVVVGKLGTSTVSPIELENAVRGRADTGFGVMTEEELKLAVAAARKRGEKVVMTNGVFDILHAGHVSYLANARKLGDRLIVAVNSDASTKRLKGDSRPVNPLEQRMIVLGALEAVDWVVSFEEDTPQRLIAGILPDLLVKGGDYKPEEIAGSKEVWANGGEVLVLNFEDGCSTTNIIKKIQQDKKG | binds | binds |

Results, then the binder that gave them:

| binding (His6-MBP-FtsH (E. coli)) | binding (Strep-LpxC (E. coli)) | Binder |
| --- | --- | --- |
| binds | binds | ArnA (enzyme, UniProt P77398 1-660) MKTVVFAYHDMGCLGIEALLAAGYEISAIFTHTDNPGEKAFYGSVARLAAERGIPVYAPDNVNHPLWVERIAQLSPDVIFSFYYRHLIYDEILQLAPAGAFNLHGSLLPKYRGRAPLNWVLVNGETETGVTLHRMVKRADAGAIVAQLRIAIAPDDIAITLHHKLCHAARQLLEQTLPAIKHGNILEIAQRENEATCFGRRTPDDSFLEWHKPASVLHNMVRAVADPWPGAFSYVGNQKFTVWSSRVHPHASKAQPGSVISVAPLLIACGDGALEIVTGQAGDGITMQGSQLAQTLGLVQGSRLNSQPACTARRRTRVLILGVNGFIGNHLTERLLREDHYEVYGLDIGSDAISRFLNHPHFHFVEGDISIHSEWIEYHVKKCDVVLPLVAIATPIEYTRNPLRVFELDFEENLRIIRYCVKYRKRIIFPSTSEVYGMCSDKYFDEDHSNLIVGPVNKPRWIYSVSKQLLDRVIWAYGEKEGLQFTLFRPFNWMGPRLDNLNAARIGSSRAITQLILNLVEGSPIKLIDGGKQKRCFTDIRDGIEALYRIIENAGNRCDGEIINIGNPENEASIEELGEMLLASFEKHPLRHHFPPFAGFRVVESSSYYGKGYQDVEHRKPSIRNAHRCLDWEPKIDMQETIDETLDFFLRTVDLTDKPS |
| binds | binds | BasR (protein, UniProt P30843 1-222) MKILIVEDDTLLLQGLILAAQTEGYACDSVTTARMAEQSLEAGHYSLVVLDLGLPDEDGLHFLARIRQKKYTLPVLILTARDTLTDKIAGLDVGADDYLVKPFALEELHARIRALLRRHNNQGESELIVGNLTLNMGRRQVWMGGEELILTPKEYALLSRLMLKAGSPVHREILYNDIYNWDNEPSTNTLEVHIHNLRDKVGKARIRTVRGFGYMLVANEEN |
| binds | binds | FabH (enzyme, UniProt P0A6R0 1-317) MYTKIIGTGSYLPEQVRTNADLEKMVDTSDEWIVTRTGIRERHIAAPNETVSTMGFEAATRAIEMAGIEKDQIGLIVVATTSATHAFPSAACQIQSMLGIKGCPAFDVAAACAGFTYALSVADQYVKSGAVKYALVVGSDVLARTCDPTDRGTIIIFGDGAGAAVLAASEEPGIISTHLHADGSYGELLTLPNADRVNPENSIHLTMAGNEVFKVAVTELAHIVDETLAANNLDRSQLDWLVPHQANLRIISATAKKLGMSMDNVVVTLDRHGNTSAASVPCALDEAVRDGRIKPGQLVLLEAFGGGFTWGSALVRF |
| binds | binds | Psd (enzyme, UniProt P0A8K1 1-322) MLNSFKLSLQYILPKLWLTRLAGWGASKRAGWLTKLVIDLFVKYYKVDMKEAQKPDTASYRTFNEFFVRPLRDEVRPIDTDPNVLVMPADGVISQLGKIEEDKILQAKGHNYSLEALLAGNYLMADLFRNGTFVTTYLSPRDYHRVHMPCNGILREMIYVPGDLFSVNHLTAQNVPNLFARNERVICLFDTEFGPMAQILVGATIVGSIETVWAGTITPPREGIIKRWTWPAGENDGSVALLKGQEMGRFKLGSTVINLFAPGKVNLVEQLESLSVTKIGQPLAVSTETFVTPDAEPAPLPAEEIEAEHDASPLVDDKKDQV |

Results are given in words; binding and its absence hold for the method and conditions named. In cells and extracts the contact can be indirect. A yes stands for co-enrichment or nearness to the bait. Other partners may have been found.
